Measured values published in patent publication US20120107861A1, “METHOD OF DETERMINING RISK OF ARRHYTHMIA” (priority 2010, published 2012).

Tested on: human iPSC-derived cardiomyocytes (iCells)
Method: Cell Culture. hiPSC-derived cardiomyocytes (iCells) from Cellular Dynamics International (CDT) were thawed in Plating Media (CDI and plated as single cells onto 0.1% Gelatin (Sigma)-coated, 6-well tissue-culture plates (Corning) at a density of 2.2−2.7×10^6 cells per well. Cells were cultured for 3-5 d at 37° C., 7% CO2 prior to re-plating onto xCELLigence® 96-well cardio e-plates (ACEA/Roche Applied Sciences) or microelectrode arrays (MEAs, Multichannel Systems). The media was changed every 2 d after plating using Maintenance Media (CDI), pre-warmed to 37° C. to minimize the temperature shock on cells.
xCELLigence® cardio e-plates and MEA Re-plating. iCells cultured in 6-well plates were harvested by twice washing in dPBS (GIBCO) then lifted with 0.5% Trypsin-EDTA (GIBCO), incubated at 37° C., 7% CO2. […] The cells were monitored every 1 h by a 20 s sweep duration by the xCELLigence® RTCA cardio system at its maximum sampling rate (77 Hz) prior to initiating experimentation.
xCELLigence® and MEA Experimentation. […] The xCELLigence® monitored changes to the beating for periodic 20 s sweep durations at 77 Hz.
Data Analysis. Data were first analyzed by the built-in analysis modules of xCELLigence® and MEAs systems, initial results were then exported into in-house developed Microsoft Excel templates for further semi-auto analysis. […]

For `Cc1cccc(CCN2CCC(C(=O)c3ccc(NS(C)(=O)=O)cc3)CC2)n1` [E-4031], the “alterations in beat patterns / arrhythmic beats” value was “erratic impedance changes were observed”.
